These are yes or no findings as the source states them, for the method shown. Binding seen in cells or lysates may run through a third protein. Some results given as binding are weak or reduced against the parent protein; the word gives no strength.

In this test the target is Z1Z2 (two Ig domains at the N terminus of the titin molecule) (human). As to the kind of experiment: complex formation and co-purification as in Example 1.

B1: GLTe-G (protein)
chain: HGEGTFTSDVSSYLEGQAAKEFIAWLVKGRGGGGGSGGGGSGGGGSAMATSELSSEVSEENSERREAFWAEWKDLTLSTRPEEGSSLHEEDTQRHETYHQQGQSQVLVQRSPWLMMRMGILGRGLQEYQLPYQRVLP
In the case of B1, the binding result was “binds”.
